In the supplement of paper PMC10727501 one finds OMR-Perf data, which are given here for 32 compounds.

Structures can show the parent of a compound that is named as a salt. The list shows a part of the results. Repeats in this data set agree poorly, so a single value says little.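 Researchers measured free-swimming zebrafish larvae's O-bend response probability to dark flashes (naive: first five; training: remaining flashes of four 60-flash blocks; test: later 60-flash block) and OMR turning toward alternating leftward/rightward LED motion. Six treated larvae were compared to sixty 0.1% DMSO controls, with |SSMD|≥2 marking a hit.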

For the experiment, the system named is Danio rerio larvae (5 dpf, TLF). The experiment can be described thus: OMR-Perf (SSMD vs DMSO vehicle); higher = higher than vehicle (e.g. higher dark-flash O-bend response probability, or better optomotor performance). Particulars: 10 µM; pre-incubation: 30-90 min.
For the compound `COc1cc(OC2CCN(C)CC2)ccc1Nc1ncc2c(n1)n(C1CCCC1)c(=O)n2C`, the OMR-Perf is -0.195.
Next, `CC(C)(C)N.CCCC(N[C@@H](C)C(=O)N1[C@@H](C(=O)O)C[C@@H]2CCCC[C@@H]21)C(=O)OCC` (some centres not stated) [Perindopril Erbumine (Aceon)]: 0.643; `CCOC(=O)C1OC1C(=O)NC(CC(C)C)C(=O)NCCC(C)C` (configuration not stated) [Aloxistatin]: 0.143; `NCCc1c[nH]cn1.O=P(=O)OO.O=P(=O)OO.[HH].[HH]` [Histamine Phosphate]: -0.316.
For the compound `NC(=O)c1cnccn1` [Pyrazinamide], the OMR-Perf is -0.193.
As for `Cc1c(NC(=O)OC[C@@H]2COCCN2)cn2ncnc(Nc3ccc4c(cnn4Cc4cccc(F)c4)c3)c12.Cl`, the figure is 0.0203; as for `CCCCCCCCCCCCCCCCCCCCCCO` [Docosanol (Abreva)], 0.0863; as for `Cc1cc(/C=C/C#N)cc(C)c1Nc1ccnc(Nc2ccc(C#N)cc2)n1` [Rilpivirine], -0.945.
As for `Cn1cnc([N+](=O)[O-])c1Sc1ncnc2nc[nH]c12` [Azathioprine], the figure is -0.938; as for `Nc1nccs1` [Aminothiazole], 0.312.
For the compound `COc1ccc2[nH]c(S(=O)Cc3ncc(C)c(OC)c3C)nc2c1` (configuration not stated) [Omeprazole], the OMR-Perf is -0.039.
`Oc1cccc(-c2nc(N3CCOCC3)c3oc4ncccc4c3n2)c1` gave an OMR-Perf of 0.135.
As for `CO[C@H]1C[C@@H]2CC[C@@H](C)[C@@](O)(O2)C(=O)C(=O)N2CCCC[C@H]2C(=O)O[C@H]([C@H](C)C[C@@H]2CC[C@@H](OCCO)[C@H](OC)C2)CC(=O)[C@H](C)/C=C(\C)[C@@H](O)[C@@H](OC)C(=O)[C@H](C)C[C@H](C)/C=C/C=C/C=C/1C` [Everolimus (RAD001)], the figure is 0.0235; as for `COC(=O)N1CCN(Cc2cccc(NC(=O)Nc3ccc(C)nc3)c2F)CC1`, 0.234.
`COc1cccc(N(C)C(=S)Oc2ccc3c(c2)CCCC3)n1` [Liranaftate]: the OMR-Perf was -1.
Turning to `CN1C[C@@H]2c3ccccc3Oc3ccc(Cl)cc3[C@H]2C1.O=C(O)/C=C\C(=O)O` [Asenapine], the OMR-Perf is -0.913.
`COc1cccc2cc(-c3nc([C@H]4CC[C@H](C(=O)O)CC4)n4ncnc(N)c34)[nH]c12`: the OMR-Perf was 0.126.
As for `CCN(CC)C(=O)[C@]1(c2ccccc2)C[C@@H]1CN.Cl` [Milnacipran HCl], the figure is 0.0122; as for `N#CC(=Cc1ccc(-c2cc(Cl)ccc2Cl)o1)C(=O)Nc1cccc2ncccc12`, -0.287; as for `Cn1c(=O)c2c(ncn2CC(O)CO)n(C)c1=O` (configuration not stated) [Dyphylline], -0.781.
`CN1CCN(c2cc3c(cc2F)c(=O)c(C(=O)O)cn3-c2ccc(F)cc2)CC1` [Difloxacin HCl]: the OMR-Perf was -0.24.
Next, `N[C@@H](CSCCCO)C(=O)O` [Fudosteine]: 0.0876.
Next, `COc1cc(Nc2ncc3c(n2)-c2ccc(Cl)cc2C(c2c(F)cccc2OC)=NC3)ccc1C(=O)O` [Alisertib (MLN8237)]: -0.583; `CCOC(=O)[C@H](CCc1ccccc1)N[C@@H](C)C(=O)N1CCC[C@H]1C(=O)O.O=C(O)/C=C\C(=O)O` [Enalapril Maleate]: 0.0273; `CC(C)(C)c1ccc(-c2nc3ccccc3[nH]2)cc1`: -1.02.
In the case of `O=c1c(O)c(-c2ccc(O)c(O)c2)oc2cc(O)cc(O)c12` [Quercetin], the OMR-Perf was -0.856.
In turn, `COc1cc2ncnc(Nc3cccc(Br)c3)c2cc1OC.Cl` yielded an OMR-Perf of 0.255.
Next, `C[C@H](NC(=O)[C@@H](O)c1cc(F)cc(F)c1)C(=O)N[C@@H]1C(=O)N(C)c2ccccc2-c2ccccc21`: 0.123; `CCCCCOC(=O)Nc1nc(=O)n([C@@H]2O[C@H](C)[C@@H](O)[C@@H]2O)cc1F` [Capecitabine]: 0.503; `Nc1ccn([C@@H]2O[C@H](CO)[C@@H](O)[C@@H]2O)c(=O)n1` [Cytidine]: 0.173.
As for `Cc1ccc(C(=O)N(CCCN)[C@@H](c2oc3cc(Cl)ccc3c(=O)c2Cc2ccccc2)C(C)C)cc1.Cl`, the figure is -0.0875; as for `CCOC(=O)c1ccc(OC(=O)CCCCCNC(=N)N)cc1.CS(=O)(=O)O` [Gabexate Mesylate], -0.274.
